Settings in all cases: 5 µM; treatment: days 7-14 after plating, readout day 21
In test [1] the test system is hPSC-derived cortical neurons (WA09). Nature of the test: nucleus area z-score vs screen plate; higher = larger nuclei (more mature).
Test [2] has the same test system. Nature of the test: total neurite length per nucleus (MAP2) z-score; higher = more neurite growth.
The test system is the same in test [3]. Kind of test: nucleus roundness z-score vs screen plate; higher = rounder nuclei (more mature).
For test [4] the test system is unchanged. Kind of test: KCl-induced FOS+/EGR-1+ double-positive nuclei fraction z-score (KCl minus unstimulated); higher = stronger activity-induced IEG response.

Counter-ions that a name gives are not always drawn. This is one part of the list. Small differences around the control level are noise.

`C[C@@H](Oc1cc(-n2cnc3ccc(CN4CCN(C)CC4)cc32)sc1C(N)=O)c1ccccc1C(F)(F)F`: the nucleus area z-score in test [1] was -3.41. The “total neurite length per nucleus (z-score)” value in test [2] came to 0.267. In test [3], the nucleus roundness z-score was -0.211. Also, the “KCl-induced FOS+/EGR-1+ double-positive nuclei fraction z-score” value in test [4] is -0.851.

Turning to `O=S(=O)(O)CCSSCCS(=O)(=O)O` [Dimesna], the nucleus area z-score in test [1] was found to be 0.682. In addition, the “total neurite length per nucleus (z-score)” value in test [2] came out at 0.322. This compound also registered a nucleus roundness z-score in test [3] of 0.69. Also, the “KCl-induced FOS+/EGR-1+ double-positive nuclei fraction z-score” value in test [4] turned out to be 0.213.

For `O=C1CN(/N=C/c2ccc([N+](=O)[O-])o2)C(=O)N1` [Nitrofurantoin], the nucleus area z-score in test [1] was 1.14. Moreover, in test [2], the “total neurite length per nucleus (z-score)” value is -0.285. The compound further showed a nucleus roundness z-score in test [3] of -1.08. Also, the “KCl-induced FOS+/EGR-1+ double-positive nuclei fraction z-score” value in test [4] was 1.36.

For the compound `COC1CCN(C(=O)c2cc(Cc3n[nH]c(=O)c4ccccc34)ccc2F)CC1`, in test [1], the nucleus area z-score was 0.303. Also, the “total neurite length per nucleus (z-score)” value in test [2] was -0.909. The compound also gave a nucleus roundness z-score in test [3] of -0.744. For the same compound, the “KCl-induced FOS+/EGR-1+ double-positive nuclei fraction z-score” value in test [4] was -0.461.

On to `CC(C(=O)O)c1ccc(CC2CCCC2=O)cc1` (stereo not drawn) [Loxoprofen], for which the nucleus area z-score in test [1] was -0.489. Moreover, in test [2], the “total neurite length per nucleus (z-score)” value stood at 0.863. In addition, the nucleus roundness z-score in test [3] was 0.134. The “KCl-induced FOS+/EGR-1+ double-positive nuclei fraction z-score” value in test [4] stood at 1.93.

As to `O=C1c2c(O)cccc2C([C@@H]2O[C@H](CO)[C@@H](O)[C@H](O)[C@H]2O)c2cc(CO)cc(O)c21` (stereo partly drawn) [Aloin], in test [1], the nucleus area z-score is -0.214. For the same compound, in test [2], the “total neurite length per nucleus (z-score)” value was found to be 0.361. Besides, in test [3], the nucleus roundness z-score worked out at 0.343. For the same compound, in test [4], the “KCl-induced FOS+/EGR-1+ double-positive nuclei fraction z-score” value turned out to be 0.265.

In turn, `OC(CC1c2ccccc2-c2cncn21)C1CCCCC1` (stereo not drawn) came in with a nucleus area z-score in test [1] of 0.226. In test [2], the “total neurite length per nucleus (z-score)” value came out at 0.788. Also, the nucleus roundness z-score in test [3] was 1.52. Further, in test [4], the “KCl-induced FOS+/EGR-1+ double-positive nuclei fraction z-score” value is -0.0268.

Consider `CN1CCC(=C2c3ccccc3CCc3sccc32)CC1` [Pizotifen Malate], for which the nucleus area z-score in test [1] was -0.222. For the same compound, the “total neurite length per nucleus (z-score)” value in test [2] came to 0.0183. The compound further registered a nucleus roundness z-score in test [3] of -0.354. The “KCl-induced FOS+/EGR-1+ double-positive nuclei fraction z-score” value in test [4] was -1.05.

In turn, `Cc1cccc(Nc2nc(-c3ccncc3)cs2)c1` registered a nucleus area z-score in test [1] of -1.96. In test [2], the “total neurite length per nucleus (z-score)” value stood at 0.476. In addition, in test [3], the nucleus roundness z-score stood at 2.01. Besides, the “KCl-induced FOS+/EGR-1+ double-positive nuclei fraction z-score” value in test [4] stood at 2.68.

In test [1], `Fc1ccc2[nH]ccc2c1-c1nc(N2CCOCC2)c2sc(CN3CCN(CC4CC4)CC3)cc2n1` showed a nucleus area z-score of -0.2. Further, in test [2], the “total neurite length per nucleus (z-score)” value is -0.052. The compound further returned a nucleus roundness z-score in test [3] of -1.42. In test [4], the “KCl-induced FOS+/EGR-1+ double-positive nuclei fraction z-score” value was 0.0703.

In the case of `CCN(C)S(=O)(=O)Nc1ccc(F)c(C(=O)c2c[nH]c3ncc(-c4cnc(C5CC5)nc4)cc23)c1F`, the nucleus area z-score in test [1] is 2.23. Also, the “total neurite length per nucleus (z-score)” value in test [2] was 0.762. Also, in test [3], the nucleus roundness z-score was -1.54. In test [4], the “KCl-induced FOS+/EGR-1+ double-positive nuclei fraction z-score” value is -0.291.

`CNC(=O)c1ccc(Nc2ncc(C(F)(F)F)c(NCc3nccnc3N(C)S(C)(=O)=O)n2)cc1` registered a nucleus area z-score in test [1] of -0.387. Moreover, in test [2], the “total neurite length per nucleus (z-score)” value was determined as 1.09. For the same compound, in test [3], the nucleus roundness z-score was -0.447. Besides, in test [4], the “KCl-induced FOS+/EGR-1+ double-positive nuclei fraction z-score” value was 0.944.

On to `CCCCCCNC(=O)Nc1ccc(S(=O)(=O)Nc2ccc(CCNC[C@H](O)COc3ccc(O)cc3)cc2)cc1`, for which, in test [1], the nucleus area z-score was -0.626. The “total neurite length per nucleus (z-score)” value in test [2] was 0.758. In test [3], the nucleus roundness z-score is 0.177. Further, the “KCl-induced FOS+/EGR-1+ double-positive nuclei fraction z-score” value in test [4] amounted to 1.11.

Regarding `CN(C)C(=O)c1cc2cnc(Nc3ccc(N4CCNCC4)cn3)nc2n1C1CCCC1`, in test [1], the nucleus area z-score turned out to be 0.482. Moreover, in test [2], the “total neurite length per nucleus (z-score)” value amounted to 0.752. In test [3], this compound registered a nucleus roundness z-score of 0.644. In test [4], the “KCl-induced FOS+/EGR-1+ double-positive nuclei fraction z-score” value is -0.355.

In test [1], `CN1CCN(CCCN2c3ccccc3Sc3ccc(C(F)(F)F)cc32)CC1` [Trifluoperazine 2HCl] came in with a nucleus area z-score of -3.55. In addition, the “total neurite length per nucleus (z-score)” value in test [2] is -2.83. This compound also registered a nucleus roundness z-score in test [3] of -1.81. Moreover, the “KCl-induced FOS+/EGR-1+ double-positive nuclei fraction z-score” value in test [4] is -2.

For the compound `Cc1nccn1CC1CCc2c(c3ccccc3n2C)C1=O` (stereo not drawn) [Ondansetron HCl], the nucleus area z-score in test [1] is -1.59. Besides, the “total neurite length per nucleus (z-score)” value in test [2] was -0.0791. Further, the nucleus roundness z-score in test [3] is 0.774. In test [4], the “KCl-induced FOS+/EGR-1+ double-positive nuclei fraction z-score” value stood at 1.8.

As for `CNCCCC12CCC(c3ccccc31)c1ccccc12` [Maprotiline HCl], the nucleus area z-score in test [1] was -0.264. The “total neurite length per nucleus (z-score)” value in test [2] is -0.158. In addition, the nucleus roundness z-score in test [3] is -1.04. The “KCl-induced FOS+/EGR-1+ double-positive nuclei fraction z-score” value in test [4] was -0.00757.

Turning to `O=C1CCC(N2C(=O)c3ccccc3C2=O)C(=O)N1` (stereo not drawn) [Thalidomide], the nucleus area z-score in test [1] is 1.46. Besides, the “total neurite length per nucleus (z-score)” value in test [2] was -0.45. This compound also gave a nucleus roundness z-score in test [3] of 0.754. In addition, the “KCl-induced FOS+/EGR-1+ double-positive nuclei fraction z-score” value in test [4] was found to be 1.09.

With `CC(C)(C#N)c1ccc(N2C(=O)OCc3cnc4ccc(-c5cnc6ccccc6c5)cc4c32)cc1`, the nucleus area z-score in test [1] was 0.816. In addition, the “total neurite length per nucleus (z-score)” value in test [2] is 1. Also, in test [3], the nucleus roundness z-score was determined as 2.22. Further, the “KCl-induced FOS+/EGR-1+ double-positive nuclei fraction z-score” value in test [4] stood at 4.67.

Compound `COc1cc(OC)c(/C=C/S(=O)(=O)Cc2ccc(OC)c(NCC(=O)O)c2)c(OC)c1` gave a nucleus area z-score in test [1] of -10.4. Moreover, the “total neurite length per nucleus (z-score)” value in test [2] is -3.64. This compound showed a nucleus roundness z-score in test [3] of -2.67. Further, the “KCl-induced FOS+/EGR-1+ double-positive nuclei fraction z-score” value in test [4] worked out at 0.603.

Compound `C[C@](N)(Cc1ccc(O)c(O)c1)C(=O)O` [Methyldopa] had a nucleus area z-score in test [1] of -0.385. In test [2], the “total neurite length per nucleus (z-score)” value is -0.13. The same compound displayed a nucleus roundness z-score in test [3] of -0.365. In addition, in test [4], the “KCl-induced FOS+/EGR-1+ double-positive nuclei fraction z-score” value came out at 0.578.

`Cc1[nH]c(/C=C2\C(=O)Nc3ccc(S(=O)(=O)N(C)c4cccc(Cl)c4)cc32)c(C)c1C(=O)N1CCN(C)CC1` showed a nucleus area z-score in test [1] of 1.22. In addition, the “total neurite length per nucleus (z-score)” value in test [2] came out at 1.82. In test [3], this compound came in with a nucleus roundness z-score of 0.958. In addition, in test [4], the “KCl-induced FOS+/EGR-1+ double-positive nuclei fraction z-score” value is 1.67.

For `Nc1ccc(C(=O)NCC(=O)O)cc1` [Sodium 4-aminohippurate Hydrate], in test [1], the nucleus area z-score was -0.136. Also, the “total neurite length per nucleus (z-score)” value in test [2] was determined as 1.35. The compound also returned a nucleus roundness z-score in test [3] of 1.67. The “KCl-induced FOS+/EGR-1+ double-positive nuclei fraction z-score” value in test [4] is 1.02.

For `CC(C)(O)[C@H]1CC[C@@](C)([C@H]2[C@@H](O)C[C@@]3(C)[C@@H]4C[C@H](O[C@@H]5O[C@H](CO)[C@@H](O)[C@H](O)[C@H]5O)[C@H]5C(C)(C)[C@@H](O[C@@H]6OC[C@@H](O)[C@H](O)[C@H]6O)CC[C@@]56C[C@@]46CC[C@]23C)O1` [Astragaloside A], the nucleus area z-score in test [1] turned out to be 0.766. Besides, the “total neurite length per nucleus (z-score)” value in test [2] is 1.12. The same compound yielded a nucleus roundness z-score in test [3] of 0.953. Besides, in test [4], the “KCl-induced FOS+/EGR-1+ double-positive nuclei fraction z-score” value stood at 3.38.

For `Cc1ccc(Nc2nccc(N(C)c3ccc4c(C)n(C)nc4c3)n2)cc1S(N)(=O)=O` [Pazopanib], the nucleus area z-score in test [1] came out at 1.18. In test [2], the “total neurite length per nucleus (z-score)” value stood at 0.725. The nucleus roundness z-score in test [3] was -0.0634. Also, in test [4], the “KCl-induced FOS+/EGR-1+ double-positive nuclei fraction z-score” value is 1.45.

For the compound `O=C1NCC2(CCN(CCc3ccccc3)CC2)O1` [Fenspiride HCl], the nucleus area z-score in test [1] was determined as 0.255. Further, the “total neurite length per nucleus (z-score)” value in test [2] turned out to be 0.934. For the same compound, the nucleus roundness z-score in test [3] came out at 1.21. In test [4], the “KCl-induced FOS+/EGR-1+ double-positive nuclei fraction z-score” value came out at 1.75.

In test [1], `CCCCN(Cc1ccc(C(=O)NO)cc1)C(=O)Nc1ccccc1` [Nexturastat A] had a nucleus area z-score of -0.359. Besides, the “total neurite length per nucleus (z-score)” value in test [2] was -0.162. In test [3], this compound registered a nucleus roundness z-score of 0.0962. In test [4], the “KCl-induced FOS+/EGR-1+ double-positive nuclei fraction z-score” value was found to be 0.337.
